Results are given in words; binding and its absence hold for the method and conditions named. In cells and extracts the contact can be indirect. Here binding means that the protein was enriched with, or labelled near, the bait; the list need not be complete. Tags and fused reporters may be left off the sequences shown.

Sequences of proteins named here, by UniProt entry; tags and fusion partners are left off.
UniProt O76216: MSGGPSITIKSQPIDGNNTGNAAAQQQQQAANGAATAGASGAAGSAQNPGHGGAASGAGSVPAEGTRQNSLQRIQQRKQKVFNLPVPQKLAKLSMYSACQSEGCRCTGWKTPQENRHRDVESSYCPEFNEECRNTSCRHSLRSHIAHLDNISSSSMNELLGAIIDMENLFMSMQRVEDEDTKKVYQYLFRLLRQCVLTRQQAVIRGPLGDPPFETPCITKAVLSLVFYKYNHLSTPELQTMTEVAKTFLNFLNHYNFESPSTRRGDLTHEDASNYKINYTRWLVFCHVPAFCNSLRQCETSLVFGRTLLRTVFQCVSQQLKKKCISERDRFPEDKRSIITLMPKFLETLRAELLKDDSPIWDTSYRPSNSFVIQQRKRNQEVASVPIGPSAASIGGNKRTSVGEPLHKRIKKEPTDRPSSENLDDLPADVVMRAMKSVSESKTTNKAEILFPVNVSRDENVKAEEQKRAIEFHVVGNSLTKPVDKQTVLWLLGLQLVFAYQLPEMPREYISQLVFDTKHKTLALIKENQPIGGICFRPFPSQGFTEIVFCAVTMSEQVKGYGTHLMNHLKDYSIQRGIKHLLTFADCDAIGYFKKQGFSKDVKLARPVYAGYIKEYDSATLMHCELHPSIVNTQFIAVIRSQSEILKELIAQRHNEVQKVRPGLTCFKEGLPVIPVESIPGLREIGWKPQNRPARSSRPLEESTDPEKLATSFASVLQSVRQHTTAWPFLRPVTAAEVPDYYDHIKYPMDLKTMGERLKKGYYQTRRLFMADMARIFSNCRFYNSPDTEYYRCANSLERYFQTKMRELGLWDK

To fix the notation:
B1: Sgf29 (protein, UniProt Q9W2I4 1-289)
chain: MPLTAESAAQQIQDRLKDIQQNIHNVDEERRRAENSIASLVRSLHATNQKVKPLLKASLTEAAQEEATIRAALAKIHEIRSIRNERRIQARNAGNKEAIRRGALMKMVQLSAQTLPLFVGKLGERAPALCGAIPAEGNYVAKVGDNVAALAKGIDEEENWILAEVVQFLHRQNKYDVIDIDEEQKDRHVLSKRKVIPLPLMRANPETDGHALFPKDTVVMALYPQTTCFYKAIVHRLPQTATEDYEVLFEDSSYTNGYAEPLPVAQRYVIAYRPTKKGAGSGSGNLSSA

This assay has as its target T1, Ada2b isoform B, C-terminally HA2-Flag2 tagged (Ada2b-PBH2F2) (Drosophila) (UniProt Q8I8V0).
T1 sequence: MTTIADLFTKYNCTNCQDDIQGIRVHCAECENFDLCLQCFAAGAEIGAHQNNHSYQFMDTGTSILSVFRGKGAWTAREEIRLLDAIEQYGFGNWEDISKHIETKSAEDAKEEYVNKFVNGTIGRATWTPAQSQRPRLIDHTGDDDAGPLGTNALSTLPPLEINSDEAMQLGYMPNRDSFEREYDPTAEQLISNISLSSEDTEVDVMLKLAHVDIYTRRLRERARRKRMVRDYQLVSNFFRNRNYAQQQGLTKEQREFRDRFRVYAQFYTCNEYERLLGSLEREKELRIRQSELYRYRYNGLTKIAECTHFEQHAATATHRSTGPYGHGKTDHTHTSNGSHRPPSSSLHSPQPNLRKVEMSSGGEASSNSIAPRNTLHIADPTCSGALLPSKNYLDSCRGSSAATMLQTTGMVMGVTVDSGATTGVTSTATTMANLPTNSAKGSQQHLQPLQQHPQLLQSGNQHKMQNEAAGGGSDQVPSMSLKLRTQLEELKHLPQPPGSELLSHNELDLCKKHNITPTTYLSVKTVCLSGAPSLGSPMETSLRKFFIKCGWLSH
Put plainly: affinity purification with mass spectrometry; Flag affinity purification of Ada2b-PBH2F2 from S2 nuclear extract, Superose 6 gel filtration, MudPIT of input, fractions 12+14 (SAGA) and 18+19 (ADA) and mock. Background: SEC sorts molecules by how far they enter the pores of the column.
Consider “Gcn5 (from UniProt O76216 1-813) (enzyme)”, for which the binding entry is on record as “binds”.

For “Ada3 (Drosophila (endogenous in S2 cells))”, the binding result was “binds”. Take B1: the binding entry is on record as “binds”.
